Values from PubChem BioAssay AID743454 (Peter MacCallum Cancer Centre, 2014)
Shown is an unselected part of about 18,000 reagents tested. 450 of all reagents (2.5%) were called active. 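Single biological run; no consistent viability z cut-off exists, so the class columns, not z-scores, define the calls.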 Unmarked entries are inactive. Reagents against one gene are numbered here.

Purpose: 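Search for knock-downs that restore vorinostat killing in resistant colon cancer cells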 (primary screen)
Cell system: human HCT116-VR colon cancer cells, selected for vorinostat resistance
Reagents: siRNA pool against human genes, 40 nM siRNA pool
Time to read-out: vorinostat for 24 h, read-out about 72 h after transfection
Conditions: vorinostat at 2.5 µM final
Measurement: 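Cell viability by CellTiter-Fluor and caspase 3/7 activity by luminescence, each scaled to mock wells per plate, duplicates averaged, then robust z-scored over all plates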
Scale: viability robust z-score: higher = more viable cells than screen typical; caspase robust z-score: higher = more caspase 3/7 activity than screen typical
Hit rule: 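a knock-down is a hit when classed RV1 or RV2 for lowered viability, or CA1 or CA2 for caspase activation; those lethal without drug were dropped; hits were retested singly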

The first 3 entries as a preview:
no.	gene	reagent no.	viability hit class	caspase hit class	viability robust z-score	caspase robust z-score
1	MIS12 (MIS12 kinetochore complex component)	1	no change	no change	-1.25	2.09
2	KRT13 (keratin 13)	1	no change	no change	-1.2	2.31
3	FOXO4 (forkhead box O4)	1	no change	no change	-1.32	4.27

Main list, from the start:
no.	gene	reagent no.	viability hit class	caspase hit class	viability robust z-score	caspase robust z-score
1	MIS12 (MIS12 kinetochore complex component)	1	no change	no change	-1.25	2.09
2	KRT13 (keratin 13)	1	no change	no change	-1.2	2.31
3	FOXO4 (forkhead box O4)	1	no change	no change	-1.32	4.27
4	MME (membrane metalloendopeptidase)	1	no change	no change	-0.31	-0.4
5	TAS2R42 (taste 2 receptor member 42)	1	no change	no change	-0.15	1.27
6	SGMS2 (sphingomyelin synthase 2)	1	no change	no change	1.19	0.17
7	FZD9 (frizzled class receptor 9)	1	no change	no change	1.39	-0.23
8	ZNF420 (zinc finger protein 420)	1	no change	no change	-0.33	0.18
9	MUC20 (mucin 20, cell surface associated)	1	no change	no change	0.54	1.44
10	NABP2 (nucleic acid binding protein 2)	1	no change	no change	-1.17	-0.09
11	ARIH2 (ariadne RBR E3 ubiquitin protein ligase 2)	1	no change	no change	-0.84	2.16
12	PDZD7 (PDZ domain containing 7)	1	no change	no change	-0.25	0.62
13	MRPL1 (mitochondrial ribosomal protein L1)	1	no change	no change	0.94	-0.64
14	KREMEN2 (kringle containing transmembrane protein 2)	1	no change	no change	-0.88	1.08
15	LRRC23 (leucine rich repeat containing 23)	1	no change	no change	-0.94	-0.54
16	CMTM5 (CKLF like MARVEL transmembrane domain containing 5)	1	no change	no change	-0.36	3.15
17	PTRH2 (peptidyl-tRNA hydrolase 2)	1	no change	no change	0.97	0.28
18	JPH2 (junctophilin 2)	1	no change	no change	-0.18	-0.86
19	GOPC (golgi associated PDZ and coiled-coil motif containing)	1	no change	no change	-0.2	-1.08
20	SIM2 (SIM bHLH transcription factor 2)	1	no change	no change	0.85	-0.39
21	GALNT14 (polypeptide N-acetylgalactosaminyltransferase 14)	1	no change	no change	1.31	-0.78
22	NEO1 (neogenin 1)	1	RV2 (reduced viability) (active)	no change	-3.02	-0.62
23	NTF4 (neurotrophin 4)	1	no change	no change	0.16	-0.12
24	WDR93 (WD repeat domain 93)	1	no change	no change	0.5	0.18
25	COX18 (cytochrome c oxidase assembly factor COX18)	1	no change	no change	0.28	-0.01
26	DUX5 (double homeobox 5)	1	no change	no change	1.6	-0.21
27	CYP2W1 (cytochrome P450 family 2 subfamily W member 1)	1	no change	no change	-0.05	-0.22
28	IL1RAPL2 (interleukin 1 receptor accessory protein like 2)	1	no change	no change	1.29	-0.44
29	INS (insulin)	1	no change	no change	0.66	0.7
30	LRRN4 (leucine rich repeat neuronal 4)	1	no change	no change	0.18	0.54
31	CYBC1 (cytochrome b-245 chaperone 1)	1	no change	no change	-0.19	-0.1
32	EVA1B (eva-1 homolog B)	1	no change	no change	-0.24	-0.1
33	RHBDL3 (rhomboid like 3)	1	no change	no change	-0.3	-0.61
34	HADHB	1	no change	no change	0.88	-0.44
35	RAD1 (RAD1 checkpoint DNA exonuclease)	1	no change	no change	0.23	-0.49
36	NOBOX (NOBOX oogenesis homeobox)	1	no change	no change	0.3	-0.76
37	TFF1 (trefoil factor 1)	1	no change	no change	-0.55	0.63
38	CST11 (cystatin 11)	1	no change	no change	-0.26	-0.28
39	CYP19A1 (cytochrome P450 family 19 subfamily A member 1)	1	no change	no change	0.16	1.15
40	NSUN5P2 (NSUN5 pseudogene 2)	1	no change	no change	-0.84	0.66
41	UNKL (unk like zinc finger)	1	no change	no change	-0.06	0.78
42	NIPAL2 (NIPA like domain containing 2)	1	no change	no change	0.64	1.66
43	BLOC1S5 (biogenesis of lysosomal organelles complex 1 subunit 5)	1	no change	no change	0.84	-0.49
44	ZDHHC18 (zDHHC palmitoyltransferase 18)	1	no change	no change	-0.18	-0.43
45	ELOA2 (elongin A2)	1	no change	no change	0.48	-0.09
46	DAP3 (death associated protein 3)	1	no change	no change	-0.8	-0.58
47	PLXNC1 (plexin C1)	1	no change	no change	0.78	-1.21
48	LYVE1 (lymphatic vessel endothelial hyaluronan receptor 1)	1	no change	no change	-0.15	1.31
49	MANSC1 (MANSC domain containing 1)	1	no change	no change	0.43	2.62
50	USE1 (unconventional SNARE in the ER 1)	1	no change	no change	-0.76	-1.21
51	RMDN1 (regulator of microtubule dynamics 1)	1	no change	no change	0.46	-0.61
52	RBMXL2 (RBMX like 2)	1	no change	no change	0.99	1.08
53	BFAR (bifunctional apoptosis regulator)	1	no change	no change	0.05	-0.56
54	PHF14 (PHD finger protein 14)	1	no change	no change	-0.84	2.44
55	PTCD2 (pentatricopeptide repeat domain 2)	1	no change	no change	-1.44	-0.16
56	ARHGEF12 (Rho guanine nucleotide exchange factor 12)	1	no change	no change	-0.52	-0.04
57	MFSD6L (major facilitator superfamily domain containing 6 like)	1	no change	no change	0.04	-0.32
58	PRELID2 (PRELI domain containing 2)	1	no change	no change	-0.48	0.3
59	CUEDC1 (CUE domain containing 1)	1	no change	no change	0.17	0.9
60	PVRIG (PVR related immunoglobulin domain containing)	1	no change	no change	1.69	-0.2
61	SLC17A2	1	no change	no change	0.96	-0.12
62	FBXO43 (F-box protein 43)	1	no change	no change	1.21	2.71
63	AMDHD2 (amidohydrolase domain containing 2)	1	no change (active)	CA1 (caspase activation)	0.46	6.67
64	NCSTN (nicastrin)	1	no change	no change	-0.32	-0.6
65	TRERF1 (transcriptional regulating factor 1)	1	no change	no change	-1.07	1.2
66	CCNH (cyclin H)	1	no change	no change	0.69	-0.44
67	STS (steroid sulfatase)	1	RV2 (reduced viability) (active)	no change	-3.27	-1.18
68	KRT8 (keratin 8)	1	no change	no change	0.33	-0.45
69	SFTPA1 (surfactant protein A1)	1	no change	no change	-0.85	0.36
70	SFTPA1 (surfactant protein A1)	2	no change	no change	0.44	-0.59
71	C11orf87 (chromosome 11 open reading frame 87)	1	no change	no change	0.1	3.33
72	CPSF4 (cleavage and polyadenylation specific factor 4)	1	no change	no change	0.1	-1.25
73	EBAG9 (estrogen receptor binding site associated antigen 9)	1	no change	no change	0.82	-0.04
